Experimental data from US20240415889A1.
No constants are given. Whether binding was seen depends on the method and setting. Some results given as binding are weak or reduced against the parent protein; the word gives no strength.

Amino acid sequences for entries named in this document (tags omitted). A change or cut given only in a name is not applied to a line headed by its entry.
UniProt Q13241: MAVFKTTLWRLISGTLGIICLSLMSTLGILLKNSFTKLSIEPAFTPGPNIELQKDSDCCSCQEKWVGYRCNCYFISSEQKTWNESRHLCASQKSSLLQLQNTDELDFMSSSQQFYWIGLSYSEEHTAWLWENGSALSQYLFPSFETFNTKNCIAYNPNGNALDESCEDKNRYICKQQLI

Tests used:
[1] = target: CD94/NKG2A on the surface of primary human NK cells (human) (UniProt Q13241); assay: flow cytometry on primary NK cells
[2] = target: single chain CD94/NKG2A-Fc (CD94/NKG2A-IgG1 fusion polypeptide) (human); assay: recombinant CD94/NKG2A binding assays
[3] = target: CD94/NKG2A on the surface of primary human NK cells (human) (UniProt Q13241); assay: flow cytometry on primary NK cells, 100 nM
[4] = target: CD94/NKG2A on the surface of primary human NK cells (human) (UniProt Q13241); assay: flow cytometry on primary NK cells, 10 nM antibody

- binding [1]: binds
- binding [2]: binds
- binding [3]: binds
- binding [4]: binds
B1: IgG Clone #2 (1B2-6, IgG1-LALA-PG) (antibody, V domains shown)
VH: EVQLVESGGGLVKPGGSLRLSCAASGFTFSGYYMSWIRQAPGKGLEWLAYISNSGRTIYYADSVKGRFTISRDNSNSSLYLQMNSLRAEDTAVYYCARGFYMDAWGKGTTVTVSS
VL: DIQMTQSPSSLSASVGDRVTITCRASQSISSYLNWYQQKPGKAPKLLIYAASSLQSGVPSRFSGSGSGTDFTLTISSLQPEDFGVYYCQYYGISPPFTFGPGTKVDIKR
